Laboratory results published in PubChem BioAssay AID248 (DTP/NCI, 2004).
The list shows only some results of the screen, not a fair sample: it gathers tests that were run many times, whatever their T/C, doses with no T/C, and many T/C values between a quarter and a half above the control. Further doses and runs are listed elsewhere. T/C gives the treated animals as a percentage of the vehicle group. Some doses have a count of surviving animals in place of a T/C: the source files T/C as zero there, which appears to mark a toxic dose or a test without result, not a measured value. Some survivor counts are full or nearly so, which does not show that the dose was tolerated: the source hardly ever lists a survival T/C far under the control, and the zero likely stands for such cases as well. Survivors were counted at the toxicity check, usually on the fifth day, unless a day is given; later deaths do not show. Schedule codes are those of the source, taken here to give the interval after Q, in days (D) or hours (H), and the number of doses after X. For survival time, this PubChem deposit counts one and a half times the control or more as active, and values a quarter to a half above the control carry no call in these data; other NCI protocols may use other cut-offs. Some entries hold several experiments; their values stand side by side, smallest first. Some T/C values carry the count of animals alive at the toxicity check (mostly the fifth day); where none is given, no animal had died by that day.

Test system: L1210 leukemia ip in BDF1 mice, survival T/C
Assay: NCI In Vivo Anticancer Drug Screen. Data for tumor model L1210 Leukemia (intraperitoneal) in B6D2F1 (BDF1) mice
Conditions: T/C endpoint: mean survival time, higher T/C = longer survival
[1] = dose: 400.0 mg/kg/injection, schedule: Q01DX001 (ip), vehicle: saline
[2] = dose: 400.0 mg/kg/injection, schedule: Q04DX003 (ip), vehicle: Klucel (hydroxypropylcellulose) (HPC)
[3] = dose: 100.0 mg/kg/injection, schedule: Q01DX001 (ip), vehicle: carboxymethylcellulose (CMC)
[4] = dose: 200.0 mg/kg/injection, schedule: Q01DX001 (ip), vehicle: carboxymethylcellulose (CMC)
[5] = dose: 400.0 mg/kg/injection, schedule: Q01DX001 (ip), vehicle: carboxymethylcellulose (CMC)
[6] = dose: 75.0 mg/kg/injection, schedule: Q01DX001 (ip), vehicle: carboxymethylcellulose (CMC)
[7] = dose: 300.0 mg/kg/injection, schedule: Q01DX001 (ip), vehicle: carboxymethylcellulose (CMC)

## CCN1CCCC(Nc2cc(C)nc(Nc3nc4cc(Cl)c(Cl)cc4[nH]3)n2)C1 (stereo not given)
dose: 50.0 mg/kg/injection, schedule: Q01DX009 (ip), vehicle: saline with Tween-80
  survivor count: 3 of 6
dose: 100.0 mg/kg/injection, schedule: Q01DX009 (ip), vehicle: saline with Tween-80
  survivor count: 4 of 6
dose: 200.0 mg/kg/injection, schedule: Q01DX001 (ip), vehicle: saline
  survivor count: 0 of 6
[1]
  survivor count: 0 of 6

## CCN(CC)C(=O)c1ccc([N+](=O)[O-])cc1
[2]
  survivor count: 3 of 6

## CC(=O)/C(N=O)=C(/C)O
dose: 100.0 mg/kg/injection, schedule: Q01DX001 (ip), vehicle: saline with Tween-80
  survivor count: 6 of 6
dose: 200.0 mg/kg/injection, schedule: Q01DX001 (ip), vehicle: saline with Tween-80
  survivor count: 6 of 6

## C[P+](c1ccccc1)(c1ccc(Cl)cc1)c1ccc(Cl)cc1
dose: 100.0 mg/kg/injection, schedule: Q04DX002 (ip), vehicle: saline
  survivor count: 1 of 3
dose: 200.0 mg/kg/injection, schedule: Q04DX002 (ip), vehicle: saline with Tween-80
  survivor count: 0 of 3
dose: 400.0 mg/kg/injection, schedule: Q04DX002 (ip), vehicle: saline with Tween-80
  survivor count: 0 of 3

## COc1ccccc1-n1c(O)c(N=Nc2ccc(Cl)cc2)c(=O)n(-c2ccc(Cl)cc2)c1=S
dose: 400.0 mg/kg/injection, schedule: Q01DX001 (ip), vehicle: Klucel (hydroxypropylcellulose) (HPC)
  survivor count: 2 of 6

## CCc1ccc(N=O)cc1
[3]
  survivor count: 2 of 4
[4]
  survivor count: 0 of 4
[5]
  survivor count: 0 of 4

## CC(=O)N(C)C1=C(Sc2ccc(C)cc2)C(=O)c2ccccc2C1=O
[6]
  survivor count: 6 of 6
[7]
  survivor count: 4 of 6

## c1ncc(OCCN2CC2)nc1OCCN1CC1
dose: 1.0 mg/kg/injection, schedule: Q01DX009 (ip), vehicle: carboxymethylcellulose (CMC)
  survivor count: 2 of 6
dose: 1.5 mg/kg/injection, schedule: Q01DX009 (ip), vehicle: carboxymethylcellulose (CMC)
  survivor count: 0 of 6
dose: 2.0 mg/kg/injection, schedule: Q01DX009 (ip), vehicle: saline
  T/C: 126 % of control
dose: 2.3 mg/kg/injection, schedule: Q01DX009 (ip), vehicle: carboxymethylcellulose (CMC)
  survivor count: 0 of 6
dose: 3.5 mg/kg/injection, schedule: Q01DX009 (ip), vehicle: carboxymethylcellulose (CMC)
  survivor count: 0 of 6
dose: 5.5 mg/kg/injection, schedule: Q01DX009 (ip), vehicle: saline
  survivor count: 0 of 6
dose: 11.1 mg/kg/injection, schedule: Q01DX009 (ip), vehicle: saline
  survivor count: 0 of 6
dose: 12.5 mg/kg/injection, schedule: Q01DX001 (ip), vehicle: carboxymethylcellulose (CMC)
  T/C: 143 % of control
dose: 16.6 mg/kg/injection, schedule: Q01DX001 (ip), vehicle: carboxymethylcellulose (CMC)
  T/C: 132 % of control
dose: 16.6 mg/kg/injection, schedule: Q01DX001 (ip), vehicle: saline
  survivor count: 3 of 6
dose: 16.6 mg/kg/injection, schedule: Q01DX009 (ip), vehicle: saline
  survivor count: 0 of 6
dose: 25.0 mg/kg/injection, schedule: Q01DX001 (ip), vehicle: carboxymethylcellulose (CMC)
  T/C: 141 and 147 % of control
dose: 25.0 mg/kg/injection, schedule: Q01DX001 (ip), vehicle: saline
  T/C: 147 % of control [4 of 6 alive]
dose: 25.0 mg/kg/injection, schedule: Q01DX009 (ip), vehicle: saline
  survivor count: 0 of 6
dose: 37.5 mg/kg/injection, schedule: Q01DX001 (ip), vehicle: carboxymethylcellulose (CMC)
  survivor count: 0 of 6
dose: 37.5 mg/kg/injection, schedule: Q01DX001 (ip), vehicle: saline
  survivor count: 0 of 6
dose: 50.0 mg/kg/injection, schedule: Q01DX001 (ip), vehicle: carboxymethylcellulose (CMC)
  survivor count: 0 of 6
[3]
  survivor count: 0 of 6
[4]
  survivor count: 0 of 6
[5]
  survivor count: 0 of 6

## Cc1ccc(C)c(C[P+](c2ccccc2)(c2ccccc2)c2ccccc2)c1
dose: 30.0 mg/kg/injection, schedule: Q01DX001 (ip), vehicle: saline
  survivor count: 2 of 6
dose: 60.0 mg/kg/injection, schedule: Q01DX001 (ip), vehicle: saline
  survivor count: 0 of 6

## C#CC(C)OCC(C)OC(C)=O (stereo not given)
dose: 200.0 mg/kg/injection, schedule: Q04DX003 (ip), vehicle: acetone
  survivor count: 3 of 6
dose: 400.0 mg/kg/injection, schedule: Q04DX003 (ip), vehicle: acetone
  survivor count: 0 of 6

## O=C1OC2C3C=CC(CC3)C2O1 (stereo not given)
dose: 60.0 mg/kg/injection, schedule: Q01DX001 (ip), vehicle: carboxymethylcellulose (CMC)
  survivor count: 2 of 6
[6]
  survivor count: 0 of 6
dose: 150.0 mg/kg/injection, schedule: Q01DX001 (ip), vehicle: carboxymethylcellulose (CMC)
  survivor count: 0 of 6
[7]
  survivor count: 0 of 6

## COC(=O)c1cc(Cl)cc(C(=O)OC)n1
dose: 100.0 mg/kg/injection, schedule: Q01DX009 (ip), vehicle: saline
  survivor count: 5 of 6

## Clc1nc2ccccc2s1
dose: 400.0 mg/kg/injection, schedule: Q01DX009 (ip), vehicle: alcohol
  survivor count: 6 of 6

## CCCCOCCCNC1=C(Cl)C(=O)c2ccccc2C1=O
[3]
  survivor count: 0 of 4
[4]
  survivor count: 0 of 4
[5]
  survivor count: 0 of 4

## CC(C)(C)OC(=O)N1Cc2cc3ccccc3nc2C1
dose: 200.0 mg/kg/injection, schedule: Q01DX009 (ip), vehicle: saline
  survivor count: 3 of 6
dose: 400.0 mg/kg/injection, schedule: Q04DX003 (ip), vehicle: saline
  survivor count: 3 of 6

## NC(=O)NN=C1CCCCC1
dose: 100.0 mg/kg/injection, schedule: Q04DX003 (ip), vehicle: Klucel (hydroxypropylcellulose) (HPC)
  survivor count: 2 of 6
dose: 110.0 mg/kg/injection, schedule: Q01DX009 (ip), vehicle: Klucel (hydroxypropylcellulose) (HPC)
  survivor count: 0 of 6
dose: 165.0 mg/kg/injection, schedule: Q01DX009 (ip), vehicle: Klucel (hydroxypropylcellulose) (HPC)
  survivor count: 0 of 6
dose: 200.0 mg/kg/injection, schedule: Q04DX003 (ip), vehicle: Klucel (hydroxypropylcellulose) (HPC)
  survivor count: 2 of 6
[2]
  survivor count: 6 of 6

## CCOC(=O)CSc1ccc2c3c(cccc13)C(=O)OC2=O
dose: 175.0 mg/kg/injection, schedule: Q01DX009 (ip), vehicle: other
  survivor count: 3 of 6
dose: 350.0 mg/kg/injection, schedule: Q01DX009 (ip), vehicle: other
  survivor count: 2 of 6

## CC(=O)Nc1ccc(S(=O)(=O)c2ccc(N)cc2)cc1
dose: 50.0 mg/kg/injection, schedule: Q04DX002 (ip), vehicle: saline with Tween-80
  T/C: 131 % of control

## OC1CCCN(Cc2ccccc2)C1 (stereo not given)
[1]
  survivor count: 0 of 6
